In all, about 1,900 compounds went through this assay and about 15 (0.8%) were called active.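 Rule for the calls: active = every replicate shows at least 50% inhibition; inconclusive = mean inhibition at least 50% but some replicate below; inactive = the rest.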 The list shows a part of the results.
Molecular target: DNA repair protein RAD52 homolog (Homo sapiens) (UniProt P43351)
Assay: inhibition of RAD52-mediated strand annealing – biochemical, FRET, single point, primary screen (AID 651660);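 note: 0% = median of neutral control wells and 100% = median of positive control wells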
Conditions: Recombinant RAD52 ssDNA annealing, FRET fluorescence, 30 min; at 18.7 µM; stronger effect = higher value

Protein sequences, listed by entry. Tags and fused reporters are not part of them. Lines headed by an entry give the natural chain unless they say otherwise; changes in a name come on top.
UniProt P43351: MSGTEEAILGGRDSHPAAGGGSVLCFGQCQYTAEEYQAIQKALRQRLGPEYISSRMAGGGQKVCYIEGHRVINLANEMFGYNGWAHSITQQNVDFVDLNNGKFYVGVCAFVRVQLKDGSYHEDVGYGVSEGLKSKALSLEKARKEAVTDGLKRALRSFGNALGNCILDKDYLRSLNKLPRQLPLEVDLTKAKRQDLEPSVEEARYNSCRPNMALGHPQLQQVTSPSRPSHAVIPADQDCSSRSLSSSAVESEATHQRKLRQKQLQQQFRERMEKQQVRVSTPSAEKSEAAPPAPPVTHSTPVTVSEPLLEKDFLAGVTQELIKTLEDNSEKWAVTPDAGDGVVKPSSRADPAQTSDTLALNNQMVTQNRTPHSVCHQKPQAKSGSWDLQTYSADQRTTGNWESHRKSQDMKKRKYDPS

inhibition, inactive:
COc1ccc2cc(C(=O)Nc3ccc(S(N)(=O)=O)cc3)sc(=O)c2c1OC 0.252%
CSc1ccc(CN2CCN(CCC(C)C)C(CCO)C2)cc1 (stereo not drawn) -3.32%
Cc1nc(N)nc2c1CCCC2 -8.16%
CC[n+]1c(C)sc2cc(C)ccc21 -6.23%
CCc1cc(=O)oc2cc3occ(-c4ccc(OC)c(F)c4)c3cc12 12%
Cc1ccc(SCC(=O)Nc2nccs2)cc1 -1.33%
COc1ccc(CCN(C)Cc2nc(Cc3ccc(OC)c(OC)c3)no2)cc1OC 4.97%
Nc1nc2c(nc(SCc3ccccc3Br)n2C2OC(CO)C(O)C2O)c(=O)[nH]1 (stereo not drawn) -3.43%
COc1cc(C(=S)N(C)C)ccc1O 4.11%
CCn1c(N2CCN(CC(=O)c3c(C)n(C)c4ccc(OC)cc34)CC2)nc2c1c(=O)[nH]c(=O)n2C -1.17%
CCOc1cc2c3c(c1)C(C)=CC(C)(C)N3C(=O)C2=O 0.854%
COCc1cc(=O)[nH]c(/N=C(\N)Nc2ccc(Oc3ccccc3)cc2)n1 1.27%
N/C(=N\OC(=O)CCCOc1ccc(Cl)cc1Cl)c1ccncc1 3.38%
Cc1ccc2c(c1)OC(=O)CC2c1ccccc1 (stereo not drawn) 2.54%
C#CCOc1ccc2c(C)cc(=O)oc2c1 -7.13%
CC1(C)CC(=O)C(C2=NC(C)(C)Cc3ccccc32)=C(O)C1 -2.42%
O=C1CCCCCN1Cc1ccccc1 5.73%
C/C(=N/N1CCN(Cc2cccc3ccccc23)CC1)c1cccnc1 -3.97%
Cc1cccc(Nc2ncccc2C(=O)O)c1C -1.67%
CS(=O)(=O)NCc1ccc(C(=O)NCc2ccccc2)cc1 -8.87%
COc1cccc(N2C(=O)[C@H]3C(C(=O)c4cnccn4)=NN[C@H]3C2=O)c1 -43.3%
COc1ccc(CNC(=O)N[C@H](C(=O)O)C(C)C)cc1OC 0.684%
CC1(C)CC(CC(=O)Nc2nccs2)(c2ccccc2)CCO1 (stereo not drawn) 5.39%
O=C(NCC1CCCCN1)c1cc(OCC(F)(F)F)ccc1OCC(F)(F)F (stereo not drawn) 3.51%
CC1CCc2cc(F)cc3c(=O)c(C(=O)O)cn1c23 (stereo not drawn) -9.95%
CC(=O)c1c[nH]c2ccc(C)cc2c1=O 0.272%
COc1ccccc1C(=O)N=C1NC(=O)CC2C(=O)NCCN12 (stereo not drawn) 10.2%
COc1cc2ccc(=O)oc2c(O)c1OCC=C(C)C -2.16%
CCCCOc1ccc(OCCCN2CCOCC2)cc1 1.51%
CCOC(=O)C1=C(C)NC(C)=C(C(=O)OC)C1c1cccc([N+](=O)[O-])c1 (stereo not drawn) 6.01%
CC(=Nc1ccccc1)C1=C(O)CCCC1=O 3.08%
O=c1c(C(c2ccccc2)c2c(O)sc3ccccc3c2=O)c(O)sc2ccccc12 -3.03%
CN(CCc1cnn(C)c1)Cc1nc(CC2CC2)no1 -137%
Cc1ccc(N2C(=O)c3ccccc3C2=O)cc1C 3.63%
CCOC(=O)c1ccc2[nH]c(C)c(CCC(C)=O)c(=O)c2c1 0.469%
O=C(NCCc1c[nH]c2ccccc12)OCCSS(=O)(=O)O -13.4%
Cc1ccc(C(=O)O)cc1NC(=O)c1cccs1 6.07%
CC1(C)CC(=O)c2cn3c(nc2C1)nc1ccccc13 -4.04%
O=C(Cc1ccccc1[N+](=O)[O-])NCc1ccncc1 2.84%
Cc1ccc(OCCSc2ncccn2)c(C)c1 -5.16%
CCOC(=O)c1c(O)c2c([nH]c1=O)CCCC2 2.81%
CC(CN1c2ccccc2Sc2ccccc21)N(C)C (stereo not drawn) 7.73%
COc1ccc(NC(=O)N2CCCCC2c2cccnc2)cc1 (stereo not drawn) -0.869%
O=C(N/C(=C/C=C\c1ccccc1)C(=O)N1CCOCC1)c1ccc(Br)cc1 8.04%
COc1ccc([C@H]2[C@H](C(=O)OC(C)(C)C)N3N=Cc4ccccc4C3C23C(=O)c2ccccc2C3=O)cc1OC (stereo partly drawn) -30.8%
NS(=O)(=O)c1cc2c(cc1C(F)(F)F)NC(Cc1ccccc1)NS2(=O)=O (stereo not drawn) 1.98%
CC12COC3(C(=O)Nc4ccc(F)cc4)CC1CCC32C (stereo not drawn) 5.41%
COc1cc(NS(=O)(=O)c2ccc(N)cc2)nc(OC)n1 -8.35%
O=C(O)c1cc(-c2ccc3c(c2)OCO3)nc2ccc(Br)cc12 -5.53%
O=Cc1ccc(N2CCCCC2)cc1 -4.33%
C[C@]12CC[C@H]3[C@@H](CCC4=CC(=O)CC[C@@]43C)[C@@H]1CC[C@@H]2C(=O)CO -7.7%
COc1cc(C=NCC2OCCc3ccccc32)cc(OC)c1 (stereo not drawn) 3.58%
CCOC(=O)c1ccc(N2C(=O)C(CC(=O)NC)N(CCc3ccc(OC)c(OC)c3)C2=S)cc1 (stereo not drawn) 0.676%
O=C(c1ccco1)N1CCCN(Cc2nc(-c3ccc4c(c3)OCO4)no2)CC1 -1.64%
CC(C)c1ccc(OCc2ccc(C(=O)O)o2)cc1 -17.6%
NC(=O)N1c2ccccc2CC(=O)c2ccccc21 -21.3%
CCOC(=O)c1ccc(NC(=S)NCCc2ccccc2F)cc1 -3.96%
CC12CCC(C(=O)N3CCc4ccccc43)(CC1=O)C2(C)C (stereo not drawn) -15.9%
CC12CCC(C(=O)Nc3ccccc3Br)(C/C1=N\O)C2(C)C (stereo not drawn) -2.53%
COc1ccc2cc(C3(C)NC(=O)NC3=O)ccc2c1 (stereo not drawn) 13.1%
Clc1ccc2c(c1)[C@H]1OCC[C@H]1[C@@H](c1ccco1)N2 -28%
Cc1ccccc1OCCSc1nc2ncnc(N)c2[nH]1 0.171%
COc1ccc2nc(S(=O)Cc3ncc(C)c(OC)c3C)[nH]c2c1 (stereo not drawn) 5.21%
O=c1cc(CN2CCN(c3cccc(Cl)c3)CC2)c2cc(O)c(-c3ccccc3)cc2o1 -53.6%
COc1ccc2oc(=O)c(-c3nc(C)cs3)cc2c1 -14.6%
O=CNC1CCCc2c1[nH]c1ccc(Cl)cc21 (stereo not drawn) 4.12%
CCCC(=O)O[C@]1(C(=O)CO)CC[C@H]2[C@@H]3CCC4=CC(=O)CC[C@]4(C)[C@H]3[C@@H](O)C[C@@]21C -6.55%
CC(C)C(=O)Nc1ccc2c3c(cccc13)CC2 -4.24%
COc1cc2c(cc1OC)C1(CCCCC1)CN(C)C2 1.04%
O=c1[nH]c(=O)n([C@H]2C[C@H](O)[C@@H](CO)O2)cc1C(F)(F)F -2.85%
CCCCCCCCNC(C)C(O)c1ccc(SC(C)C)cc1 (stereo not drawn) 24.6%
CC(=O)CC(c1ccc([N+](=O)[O-])cc1)c1c(O)c2ccccc2oc1=O (stereo not drawn) 0.581%
COc1ccc2[nH]c(C)c(CN3CCC(C)CC3)c(=O)c2c1 7.55%
Cc1ccccc1C(=O)NCC(=O)O -15.9%
O=C(CCCN1CCC(O)(c2ccc(Cl)cc2)CC1)c1ccc(F)cc1 4.86%
O=C(NC(=S)Nc1nc(-c2ccccc2)cs1)c1ccco1 -25.2%
C=C(C)COc1ccc(-c2n[nH]c(C)c2-c2ccc(OC)cc2)c(O)c1 17.8%
COc1ccc2c(c1)C(=O)CC(c1ccccc1F)O2 (stereo not drawn) 4.55%
CC1(C)CC(c2csc(N)n2)CCO1 (stereo not drawn) -1.66%
COCCOC(=O)C1=C(C)NC(C)=C(C(=O)OC(C)C)C1c1cccc([N+](=O)[O-])c1 (stereo not drawn) 4.98%
CN1C(C(=O)Nc2ccccn2)=C(O)c2ccccc2S1(=O)=O 3.33%
Cc1ccc2c(ccc(=S)n2C)c1 -5.88%
O=C(O)CCCNc1ccc(S(=O)(=O)Nc2ccccc2C(=O)O)cc1C(=O)O -12.9%
CC1(C)[C@@H](O)CC[C@]2(C)[C@H]3C(=O)C=C4[C@@H]5C[C@@](C)(C(=O)O)CC[C@]5(C)CC[C@@]4(C)[C@]3(C)CC[C@@H]12 -1.28%
CN(C)CCCNc1ncnc2c1cnn2-c1ccccc1 -3.11%
COc1cc(NC(=O)COc2ccccc2)c(OC)cc1NC(C)=O -8.13%
CN1/C(=C\C=Nc2ccccc2)C(C)(C)c2ccccc21 -41.7%
COc1cc(C(=O)NCCc2c[nH]c3ccccc23)ccc1OCc1c(C)noc1C 2.01%
CC(C)c1ccc2[nH]c3c(c2c1)CCCC3=O 4.13%
Cc1ccc2c(c1)C(CCN)C(=O)N2Cc1ccccc1 (stereo not drawn) 16.9%
COC(=O)c1cc(Br)c(=O)n(CCc2ccc(O)cc2)c1 -4.38%
CCOC(=O)C1NN=C(C(=O)c2ccccc2)C1c1ccc(Cl)cc1 (stereo not drawn) -14.5%
Cc1cccc2c1CC(C)(C)N/C2=C\C(N)=O -11.6%
CC(C[N+](C)(C)C)OC(N)=O (stereo not drawn) 7.25%
Cc1onc(-c2c(Cl)cccc2Cl)c1C(=O)NC1C(=O)N2C1SC(C)(C)C2C(=O)O (stereo not drawn) -6.94%
CN(CCCN1CCOCC1)Cc1cn(C)nc1-c1ccccc1F -2.16%
CN(C)CCN(Cc1ccc(Cl)cc1)c1ccccn1 -1.17%
O=C(c1cccc2ccccc12)C1CCCN(C(=O)CCN2CCCO2)C1 (stereo not drawn) -0.246%

— PubChem BioAssay AID651660 (Broad Institute, 2012)
